# Laboratory results reported in patent US12396997B2, “Methods of treatment with an iboga alkaloid” (priority 2022, dated 2025).
# Tested on: special operations veterans with history of TBI
# Assay: Structural T1w MRI (FreeSurfer) regional volume and cortical thickness
# Assay type: in vivo, human
# Protocol: Structural imaging of the brain was also conducted on some of the subjects of Example 1. Gray matter constitutes about 40% of the brain and white matter constitutes about 60% of the brain. Gray matter contains most of the brain's neuronal cell nodes, it is fully developed once a person reaches their 20's and interprets sensor information from various parts of the body. White matter is made up of bundles which connect various gray matter areas, it develops throughout the 20's and peaks in middle age. Typical metrics analyzed in anatomical (T1-weighted. “T1w”) imaging include volume and/or shape of nuclei (e.g. caudate), volume and/or shape of ventricles of the brain, and cortical thickness (mm). These metrics can be used to study normal and abnormal neuroanatomy and are primarily used to quantify gray matter. A tool called FreeSurfer was applied to images for a T1w structural analysis (volume, cortical thickness) to adjust for bias, remove non-brain matter, segments by tissue, parcels the brain into standardized regions, and provides measurements of those regions. FreeSurfer measurements of whole brain volume, volume by tissue (gray, white, CSF), estimated intracranial volume (ICV), subcortical gray matter volume, cortical volume by region were done. […] In particular, analysis was done to determine if there was any loss in gray matter volume or cortical thickness, whether there was a loss in white matter volume or an increase in presence of white matter […].
# The fMRI images were also inspected to determine the difference in volume in regional areas of the brain from baseline to one month after treatment. FIG. 8A is a bar graph showing the effect size of a change in volume in 47 brain regions indicated along the x-axis. […] The fMRI images were also inspected for whole brain thickness at baseline and one month after treatment. […] FIG. 8B is a bar graph showing the effect size of a cortical thickness change for the brain regions indicated along the x-axis, from baseline to one month after treatment. […]
# [1] = baseline to one month after treatment
smiles,measurement,setting,value
CCC1CC2CC3c4[nH]c5ccc(OC)cc5c4CCN(C2)C13 (stereo not drawn) [ibogaine],Regional volume change: cerebral white mater (left) and left ventral DC,[1],Increases in volume
same,Regional volume change: posterior corpus callosum and left choroid plexus,[1],Decreases in volume
same,"Regional cortical thickness change: left entorhinal cortex, left-lateral-orbitofrontal pole, parahippocampal gyrus, left insular cortex, right-pars triangularis",one-month after treatment,Increases in cortical thickness
